These are yes or no findings as the source states them, for the method shown. In cells and extracts the contact can be indirect. A result given as binding can be weak or reduced; the word gives no strength.
How the values were obtained:
Experiment in all cases: co-purification (Ni-NTA affinity, then SEC); LptB (wild type or mutant), LptF and LptG co-expressed with LptC-His7 in E. coli BL21(λDE3); membranes solubilised in 1% DDM with 2 mM ATP; complex captured on Ni-NTA by LptC-His7, eluted with 200 mM imidazole, then Superdex 200 increase in 0.005% LMNG
[1] = target: LptC-His7 (E. coli) (UniProt P0ADV9)
[2] = target: LptF (E. coli) (UniProt P0AF98)
[3] = target: LptG (E. coli) (UniProt P0ADC6)

Amino acid sequences for entries named in this document (tags omitted). A change or cut given only in a name is not applied to a line headed by its entry.
UniProt P0ADV9: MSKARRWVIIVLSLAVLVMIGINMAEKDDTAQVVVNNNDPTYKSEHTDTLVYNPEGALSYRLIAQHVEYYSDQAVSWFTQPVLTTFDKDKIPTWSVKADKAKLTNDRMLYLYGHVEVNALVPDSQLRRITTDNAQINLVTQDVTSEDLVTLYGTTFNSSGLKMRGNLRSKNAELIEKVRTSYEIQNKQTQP
UniProt P0AF98: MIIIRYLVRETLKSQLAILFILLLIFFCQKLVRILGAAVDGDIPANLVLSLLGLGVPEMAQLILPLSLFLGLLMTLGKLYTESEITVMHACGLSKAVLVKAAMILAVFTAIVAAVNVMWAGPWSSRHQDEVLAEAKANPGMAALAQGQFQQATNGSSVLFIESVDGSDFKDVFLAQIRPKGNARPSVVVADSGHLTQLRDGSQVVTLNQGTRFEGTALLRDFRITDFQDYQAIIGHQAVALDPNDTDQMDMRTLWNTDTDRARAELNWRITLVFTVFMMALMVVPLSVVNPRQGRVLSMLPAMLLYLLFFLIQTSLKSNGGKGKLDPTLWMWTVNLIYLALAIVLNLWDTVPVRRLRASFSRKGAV
UniProt P0ADC6: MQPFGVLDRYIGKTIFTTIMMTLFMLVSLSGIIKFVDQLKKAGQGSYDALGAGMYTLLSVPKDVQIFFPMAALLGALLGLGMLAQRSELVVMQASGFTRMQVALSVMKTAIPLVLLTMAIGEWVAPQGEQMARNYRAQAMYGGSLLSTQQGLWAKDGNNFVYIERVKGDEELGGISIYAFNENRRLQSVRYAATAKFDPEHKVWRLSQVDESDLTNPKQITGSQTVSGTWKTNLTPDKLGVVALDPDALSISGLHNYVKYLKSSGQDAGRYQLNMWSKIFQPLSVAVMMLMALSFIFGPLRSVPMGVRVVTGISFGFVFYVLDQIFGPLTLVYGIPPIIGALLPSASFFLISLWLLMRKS

Measured: binding

B1: LptB^R144H (enzyme, UniProt P0A9V1 1-241)
chain: MATLTAKNLAKAYKGRRVVEDVSLTVNSGEIVGLLGPNGAGKTTTFYMVVGIVPRDAGNIIIDDDDISLLPLHARARRGIGYLPQEASIFRRLSVYDNLMAVLQIRDDLSAEQREDRANELMEEFHIEHLRDSMGQSLSGGERHRVEIARALAANPKFILLDEPFAGVDPISVIDIKRIIEHLRDSGLGVLITDHNVRETLAVCERAYIVSQGHLIAHGTPTEILQDEHVKRVYLGEDFRL
binds: all assays above

B2: LptB^F239A (enzyme, UniProt P0A9V1 1-241)
chain: MATLTAKNLAKAYKGRRVVEDVSLTVNSGEIVGLLGPNGAGKTTTFYMVVGIVPRDAGNIIIDDDDISLLPLHARARRGIGYLPQEASIFRRLSVYDNLMAVLQIRDDLSAEQREDRANELMEEFHIEHLRDSMGQSLSGGERRRVEIARALAANPKFILLDEPFAGVDPISVIDIKRIIEHLRDSGLGVLITDHNVRETLAVCERAYIVSQGHLIAHGTPTEILQDEHVKRVYLGEDARL
binds: all assays above

B3: LptB^R144H/F239A (enzyme, UniProt P0A9V1 1-241)
chain: MATLTAKNLAKAYKGRRVVEDVSLTVNSGEIVGLLGPNGAGKTTTFYMVVGIVPRDAGNIIIDDDDISLLPLHARARRGIGYLPQEASIFRRLSVYDNLMAVLQIRDDLSAEQREDRANELMEEFHIEHLRDSMGQSLSGGERHRVEIARALAANPKFILLDEPFAGVDPISVIDIKRIIEHLRDSGLGVLITDHNVRETLAVCERAYIVSQGHLIAHGTPTEILQDEHVKRVYLGEDARL
binds: all assays above

B4: His8-LptB^E163Q (enzyme, E. coli, UniProt P0A9V1 1-241, looked up)
chain: MATLTAKNLAKAYKGRRVVEDVSLTVNSGEIVGLLGPNGAGKTTTFYMVVGIVPRDAGNIIIDDDDISLLPLHARARRGIGYLPQEASIFRRLSVYDNLMAVLQIRDDLSAEQREDRANELMEEFHIEHLRDSMGQSLSGGERRRVEIARALAANPKFILLDQPFAGVDPISVIDIKRIIEHLRDSGLGVLITDHNVRETLAVCERAYIVSQGHLIAHGTPTEILQDEHVKRVYLGEDFRL
notes: catalytically dead E163Q variant; the CTD is fully resolved up to L241, the last residue of LptB; A TEV protease cleavage site stands between the His8 tag and LptB; no TEV cleavage is described; also called His8TEV-LptB(E163Q); His-LptB(E163Q); source: E. coli KRX, pET28b(+)-His8TEV-LptB(E163Q), purified (Ni-NTA, gel filtration on Superdex 200); not shown: His8, N-terminal, kept
binds: all assays above

B5: LptB^WT (enzyme, UniProt P0A9V1 1-241)
chain: MATLTAKNLAKAYKGRRVVEDVSLTVNSGEIVGLLGPNGAGKTTTFYMVVGIVPRDAGNIIIDDDDISLLPLHARARRGIGYLPQEASIFRRLSVYDNLMAVLQIRDDLSAEQREDRANELMEEFHIEHLRDSMGQSLSGGERRRVEIARALAANPKFILLDEPFAGVDPISVIDIKRIIEHLRDSGLGVLITDHNVRETLAVCERAYIVSQGHLIAHGTPTEILQDEHVKRVYLGEDFRL
binds: all assays above
